From PMC4921468
No constants are given. Whether binding was seen depends on the method and setting. In cells and extracts the contact can be indirect. Some binding calls cover weakened binding; strength is not graded here.

Amino acid sequences for entries named in this document (tags omitted).
UniProt P17096: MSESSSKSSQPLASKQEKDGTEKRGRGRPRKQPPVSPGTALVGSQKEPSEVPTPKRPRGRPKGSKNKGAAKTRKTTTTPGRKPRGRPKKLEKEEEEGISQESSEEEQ
UniProt Q16665: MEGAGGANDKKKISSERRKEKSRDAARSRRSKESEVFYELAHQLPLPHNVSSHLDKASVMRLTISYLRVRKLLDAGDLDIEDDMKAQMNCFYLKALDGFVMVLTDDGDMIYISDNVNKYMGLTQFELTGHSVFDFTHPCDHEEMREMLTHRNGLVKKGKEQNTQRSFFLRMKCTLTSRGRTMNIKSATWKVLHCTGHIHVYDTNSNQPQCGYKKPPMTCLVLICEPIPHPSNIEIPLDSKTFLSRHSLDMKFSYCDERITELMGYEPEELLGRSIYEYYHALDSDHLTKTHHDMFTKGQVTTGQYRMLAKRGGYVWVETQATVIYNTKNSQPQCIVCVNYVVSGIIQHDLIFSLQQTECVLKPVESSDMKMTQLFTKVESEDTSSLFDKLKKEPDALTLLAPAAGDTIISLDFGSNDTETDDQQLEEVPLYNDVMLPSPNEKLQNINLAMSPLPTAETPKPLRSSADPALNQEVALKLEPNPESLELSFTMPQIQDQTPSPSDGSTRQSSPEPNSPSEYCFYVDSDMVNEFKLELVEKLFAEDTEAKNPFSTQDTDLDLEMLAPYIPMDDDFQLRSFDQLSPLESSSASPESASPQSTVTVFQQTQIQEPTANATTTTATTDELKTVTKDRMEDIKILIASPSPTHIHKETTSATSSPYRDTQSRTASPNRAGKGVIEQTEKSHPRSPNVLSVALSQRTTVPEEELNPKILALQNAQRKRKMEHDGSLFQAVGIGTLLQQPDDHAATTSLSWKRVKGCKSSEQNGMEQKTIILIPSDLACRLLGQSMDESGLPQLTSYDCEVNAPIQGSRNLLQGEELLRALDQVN

Biological target: HA-HMGA1 (pcDNA3/HA-HMGA1), overexpressed in HEK-293 cells (human) (UniProt P17096)
Assay: co-IP; 200 μg nuclear extract of HEK-293 cells overexpressing HMGA1 (normoxia or hypoxia) mixed overnight with 5 μg anti-HMGA1 antibody, protein A Sepharose 90 min at 4°C, washed twice with PBS, immunoblot with anti-HIF-1α

## hypoxia-inducible factor 1 alpha (HIF-1α), in HEK-293 cells (from UniProt Q16665 1-826)
  binding: binds
